Data published in patent publication US20240262905A1.
No constants are given. Whether binding was seen depends on the method and setting. Some entries that bind do so weakly or less than the wild type.

Amino acid sequences for entries named in this document (tags omitted). Residues count along the entry.
UniProt P32926, residues 50-615: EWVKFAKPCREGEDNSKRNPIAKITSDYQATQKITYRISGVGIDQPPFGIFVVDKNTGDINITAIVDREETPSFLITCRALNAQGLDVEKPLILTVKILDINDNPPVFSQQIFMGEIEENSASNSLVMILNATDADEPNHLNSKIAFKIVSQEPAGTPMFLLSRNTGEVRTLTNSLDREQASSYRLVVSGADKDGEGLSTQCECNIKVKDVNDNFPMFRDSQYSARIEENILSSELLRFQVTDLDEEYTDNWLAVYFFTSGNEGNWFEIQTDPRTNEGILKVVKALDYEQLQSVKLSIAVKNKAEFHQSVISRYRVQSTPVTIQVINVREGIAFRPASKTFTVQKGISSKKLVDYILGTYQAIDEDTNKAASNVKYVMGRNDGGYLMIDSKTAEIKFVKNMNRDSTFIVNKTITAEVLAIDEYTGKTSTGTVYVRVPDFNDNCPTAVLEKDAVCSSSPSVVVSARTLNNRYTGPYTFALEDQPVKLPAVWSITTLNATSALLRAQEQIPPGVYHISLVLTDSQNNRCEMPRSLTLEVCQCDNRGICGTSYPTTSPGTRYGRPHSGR

Target: human DSG-3 (human) (UniProt P32926)
Assay: bridging ELISA, plate coated with hDSG-3, his-tagged hCD25, anti-His-HRP detection

binding: binds
Substance: IL2DSGAB2 (from UniProt P0DOX7 1-214)
